For at least one entry, the source does not settle the construct or the ends of the probe. For some of these results: Negatives hold for the conditions tested.
Legend:
GST-MaNAC083 (banana) [1] = test: EMSA; conditions: LightShift Chemiluminescent EMSA kit, native acrylamide gel; pH and temperature not stated (refers to previous work); recombinant protein; protein details: N-terminal GST (pGEX-4T-1); label: 5' biotin
GST-MaNAC083 (banana) [2] = test: competition EMSA; conditions: LightShift Chemiluminescent EMSA kit, native acrylamide gel, pH and temperature not stated (refers to previous work), recombinant protein, protein details: N-terminal GST (pGEX-4T-1), label: none (unlabeled competitor)

Sequence	binding result (GST-MaNAC083 (banana) [1])	other results
AACGTCCTCGAAGCTCACATGCGTTGCCGGGCTGAA (double strand) [MaACO5 probe]	binds	
AACGTCCTCGAAGCTCGGGGGCGTTGCCGGGCTGAA (double strand) [MaACO5 mutant probe]		binding result (GST-MaNAC083 (banana) [2]; unlabeled competitor vs N7): no binding
TCACCCGAGCAGCGCCATGTGCAGATAAAAGAAACA (double strand) [MaACO4 probe]	binds	
TCACCCGAGCAGCGCCCCCCGCAGATAAAAGAAACA (double strand) [MaACO4 mutant probe]		binding result (GST-MaNAC083 (banana) [2]; unlabeled competitor vs N5): no binding
TGGAAGAACTCAACAACATGATGCCTTCCCGGGTCT (double strand) [MaACO1 probe]	binds	
TGGAAGAACTCAACAGGGGGATGCCTTCCCGGGTCT (double strand) [MaACO1 mutant probe]		binding result (GST-MaNAC083 (banana) [2]; unlabeled competitor vs N3): no binding
TGTGAGACGGAGGAGCATGTTATGCATGACAACCGG (double strand) [MaACO8 probe]	binds	
TGTGAGACGGAGGAGCCCCCTATGCATGACAACCGG (double strand) [MaACO8 mutant probe]		binding result (GST-MaNAC083 (banana) [2]; unlabeled competitor vs N9): no binding
TTCTTTCGCAAACAGCATGTCATCGATGAGATTAAG (double strand) [MaACS1 probe]	binds	
TTCTTTCGCAAACAGCCCCCCATCGATGAGATTAAG (double strand) [MaACS1 mutant probe]		binding result (GST-MaNAC083 (banana) [2]; unlabeled competitor vs N1): no binding
